The source of these data is patent US20050123939.

In one data set the target is T1, NF-kB p50/p50 homodimer (UniProt P19838).
T1 sequence (looked up, limits assumed): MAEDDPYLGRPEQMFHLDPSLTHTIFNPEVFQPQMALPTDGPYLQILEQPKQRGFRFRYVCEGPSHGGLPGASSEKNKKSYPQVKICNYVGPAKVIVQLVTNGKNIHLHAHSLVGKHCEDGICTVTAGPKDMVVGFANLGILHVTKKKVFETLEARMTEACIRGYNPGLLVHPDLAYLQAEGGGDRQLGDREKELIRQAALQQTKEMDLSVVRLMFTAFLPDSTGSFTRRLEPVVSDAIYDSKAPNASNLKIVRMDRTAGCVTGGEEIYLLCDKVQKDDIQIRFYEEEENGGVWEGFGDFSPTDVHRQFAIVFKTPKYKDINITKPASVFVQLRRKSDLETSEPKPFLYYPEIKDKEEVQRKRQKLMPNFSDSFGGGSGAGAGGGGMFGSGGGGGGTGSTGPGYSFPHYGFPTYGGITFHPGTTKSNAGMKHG
Nature of the data set: SELEX. The settings on record: purified recombinant protein, protein details: Alexa Fluor 488 labeled, label: bead.

For data set [1], the target named is T2, NF-kB p50 (unlabeled, detected by anti-NF-kB antibody) (UniProt P19838).
T2 sequence (looked up, limits assumed): T1 sequence (looked up, limits assumed)
Nature of the data set: SELEX. The settings on record: purified recombinant protein, label: bead.

Data set [2] has as its target T2, NF-kB p50 (unlabeled, detected by anti-NF-kB antibody). Nature of the data set: binding assay. As to conditions: CITED earlier studies, purified recombinant protein.
The mark [3] stands for this setting: 3'-thioates as in Table 2, complement unmodified.
The mark [4] stands for this setting: 3'-dithioates as in Table 2, complement unmodified.

For part of these data: A negative result means that nothing was seen under these conditions. Protein sequences can lack the tags named with them. Construct, isoform or probe ends are uncertain for at least one entry.

Consider “AGTCAAGTCGAAGTTCCACGGT (double strand) [S-ODN selected 4]”, for which, in the data set with NF-kB p50/p50 homodimer (setting [3]), the selection result is “selected”. Consider “AGTTGAGTCGAAGGACCCATTT (double strand) [S-ODN selected 2]”, for which the selection result with NF-kB p50/p50 homodimer (setting [3]) is “selected”.

Consider “ATGTAGCCAAAGGTGGAACCCC (double strand) [E008 selected 2]”, for which the selection result in data set [1] (3'-dithioate at a10,g16,a17) is on record as “selected”. Turning to “ATGTAGCCAGCTAGTCTGTCAG (double strand) [S2-ODN selected 1]”, the selection result in the data set with NF-kB p50/p50 homodimer (no dithioate linkages) was “selected”. With “ATGTAGCCGAAGGTGGAACCCC (double strand) [S2-ODN selected 4]”, the selection result with NF-kB p50/p50 homodimer (setting [4]) is “selected”. Take “CGCCAGCCAAAGGTGCTGTCAG (double strand) [S2-ODN selected 2]”: the selection result with NF-kB p50/p50 homodimer (setting [4]) is reported as “selected”. With “CGCCAGCCGAAGGTGCTGTCAG (double strand) [E008 selected 1]”, the selection result in data set [1] (3'-dithioate at a10) is “selected”.

Turning to “CGCCAGCCGAAGGTGGAACCCC (double strand) [S2-ODN selected 5]”, the selection result with NF-kB p50/p50 homodimer (setting [4]) is “selected”. On to “CGCCCAGTAGCTAGTCTGTCAG (double strand) [E008 selected 4]”, for which the selection result in data set [1] (3'-dithioate at c5) is on record as “selected”. For “CGCCCAGTGAAGGTGCTGTCAG (double strand) [E008 selected 3]”, the selection result in data set [1] (3'-dithioate at c5,g9,a10) was “selected”. Consider “CGCCCAGTGGCTAGTGAACCCC (double strand) [S2-ODN selected 3]”, for which the selection result in the data set with NF-kB p50/p50 homodimer (setting [4]) was “selected”. “CGTCAAGTCTCAGTTCCCATTT (double strand) [S-ODN selected 3]”: the selection result with NF-kB p50/p50 homodimer (setting [3]) is “selected”. Consider “GGGGTTCCACCTTCACTGGGCG (double strand) [chemically synthesized p50 thioaptamer]”, for which the Kd in data set [2] (monothiophosphate 5' to each dA residue (diastereomeric mixture), diastereomeric mixture) is under 20 nM. As to “GGGGTTCCACCTTCACTGGGCG (double strand) [in vitro selected p50 thioaptamer clone (enzymatic)]”, the Kd in data set [2] (monothiophosphate 5' to each dA residue (chiral, enzymatic), apparent Kd, 15 rounds of selection) was under 5 nM. With “GGGGTTCCACCTTCACTGGGCG (double strand) [normal phosphate backbone version of 15th round clone]”, the binding result in data set [2] (no binding of normal phosphoryl backbone, cited from earlier work) is reported as “no binding”.
